Molecules are shown by their SMILES. The list shows a part of the results, in another mix than the full data. Calls are pooled over several reports, among them a noisy single-well screen. This is one part of the list.

What all share (conditions): stereoisomer not certain
The test system of test [1] is T1, O5AL1.
T1 sequence (whole entry): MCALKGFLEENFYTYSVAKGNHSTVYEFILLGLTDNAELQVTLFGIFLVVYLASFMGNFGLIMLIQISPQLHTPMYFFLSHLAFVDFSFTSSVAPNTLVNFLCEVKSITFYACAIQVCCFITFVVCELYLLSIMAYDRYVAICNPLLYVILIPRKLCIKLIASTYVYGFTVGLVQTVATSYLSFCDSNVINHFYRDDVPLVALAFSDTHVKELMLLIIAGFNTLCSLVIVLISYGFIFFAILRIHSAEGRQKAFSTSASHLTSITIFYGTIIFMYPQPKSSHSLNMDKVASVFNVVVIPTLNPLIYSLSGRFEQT
The procedure, abridged: (§1)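 Transient luciferase assays in mammalian cell lines were common, though methods varied by source. The values come from published papers and their supplementary material, with extra details from the original authors when needed. Responsive refers to a measured signal the original authors judged statistically different from baseline, and non-responsive (inactive) to the remainder.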

For test [2], the system named is T2, O5AP2.
T2 sequence (whole entry): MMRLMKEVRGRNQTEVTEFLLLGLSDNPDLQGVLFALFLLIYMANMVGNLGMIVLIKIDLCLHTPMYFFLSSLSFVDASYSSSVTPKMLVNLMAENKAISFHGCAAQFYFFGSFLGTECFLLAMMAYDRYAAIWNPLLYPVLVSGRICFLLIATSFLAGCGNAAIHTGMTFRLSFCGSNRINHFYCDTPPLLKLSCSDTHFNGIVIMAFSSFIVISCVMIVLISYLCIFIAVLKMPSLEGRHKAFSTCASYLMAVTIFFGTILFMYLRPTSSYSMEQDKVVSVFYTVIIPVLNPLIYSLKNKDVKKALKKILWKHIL
The procedure, abridged:
as §1

Test [3] has as its system T3, O5AU1.
T3 sequence (whole entry): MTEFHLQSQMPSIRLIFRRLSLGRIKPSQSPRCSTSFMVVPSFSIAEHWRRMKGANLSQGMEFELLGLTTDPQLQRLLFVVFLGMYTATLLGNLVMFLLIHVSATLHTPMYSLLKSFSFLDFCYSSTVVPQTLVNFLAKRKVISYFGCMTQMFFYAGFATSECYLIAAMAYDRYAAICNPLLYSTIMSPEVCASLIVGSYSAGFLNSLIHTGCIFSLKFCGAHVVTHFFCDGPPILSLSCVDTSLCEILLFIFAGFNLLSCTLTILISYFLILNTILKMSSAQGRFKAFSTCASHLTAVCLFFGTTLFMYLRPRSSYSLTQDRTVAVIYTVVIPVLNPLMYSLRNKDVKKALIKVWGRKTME
The procedure, abridged: as §1

Test [4] relates to T4, O5H14.
T4 sequence (whole entry): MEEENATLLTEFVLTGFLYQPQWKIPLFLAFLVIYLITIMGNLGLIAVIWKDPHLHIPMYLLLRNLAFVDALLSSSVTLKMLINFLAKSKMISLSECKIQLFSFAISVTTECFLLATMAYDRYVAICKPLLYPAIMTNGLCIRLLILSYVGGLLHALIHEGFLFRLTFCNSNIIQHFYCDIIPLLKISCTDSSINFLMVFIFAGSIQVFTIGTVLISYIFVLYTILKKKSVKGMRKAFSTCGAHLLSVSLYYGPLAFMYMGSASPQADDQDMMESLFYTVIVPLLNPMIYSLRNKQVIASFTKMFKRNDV
A digest of the protocol:
as §1

The test system of test [5] is T5, O6C68.
T5 sequence (whole entry): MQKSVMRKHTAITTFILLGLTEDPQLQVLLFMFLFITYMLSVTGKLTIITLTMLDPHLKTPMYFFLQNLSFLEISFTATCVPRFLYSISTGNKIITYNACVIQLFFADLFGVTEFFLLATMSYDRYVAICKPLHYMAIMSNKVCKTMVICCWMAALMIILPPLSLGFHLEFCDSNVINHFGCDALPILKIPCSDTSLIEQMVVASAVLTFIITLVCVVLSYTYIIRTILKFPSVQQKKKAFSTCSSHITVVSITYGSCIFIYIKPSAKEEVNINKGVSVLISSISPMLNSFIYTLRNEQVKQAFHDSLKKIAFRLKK
The procedure, abridged: as §1

Test [6] has as its system T6, O6C70.
T6 sequence (whole entry): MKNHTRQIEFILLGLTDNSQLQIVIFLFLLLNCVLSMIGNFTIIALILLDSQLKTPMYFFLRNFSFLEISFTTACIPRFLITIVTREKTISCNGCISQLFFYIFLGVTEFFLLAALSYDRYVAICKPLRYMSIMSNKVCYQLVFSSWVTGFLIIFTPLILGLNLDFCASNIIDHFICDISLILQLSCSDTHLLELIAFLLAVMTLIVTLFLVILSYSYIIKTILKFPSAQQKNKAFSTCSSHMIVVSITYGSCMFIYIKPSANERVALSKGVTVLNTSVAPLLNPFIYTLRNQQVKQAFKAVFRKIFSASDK
The procedure, abridged: as §1

In test [7] the test system is T7, O7E24.
T7 sequence (whole entry): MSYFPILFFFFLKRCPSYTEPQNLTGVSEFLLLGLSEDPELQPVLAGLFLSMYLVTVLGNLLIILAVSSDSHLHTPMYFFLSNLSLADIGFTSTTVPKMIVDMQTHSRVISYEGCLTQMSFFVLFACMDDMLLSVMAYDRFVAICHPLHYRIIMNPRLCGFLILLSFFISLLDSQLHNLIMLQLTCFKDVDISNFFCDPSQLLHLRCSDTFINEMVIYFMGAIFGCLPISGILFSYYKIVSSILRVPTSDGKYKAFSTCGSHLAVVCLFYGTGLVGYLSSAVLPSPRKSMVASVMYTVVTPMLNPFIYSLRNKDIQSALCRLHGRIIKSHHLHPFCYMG
The procedure, abridged:
as §1

The target of test [8] is T8, OR10A3 (Homo sapiens) (UniProt P58181).
T8 sequence (whole entry): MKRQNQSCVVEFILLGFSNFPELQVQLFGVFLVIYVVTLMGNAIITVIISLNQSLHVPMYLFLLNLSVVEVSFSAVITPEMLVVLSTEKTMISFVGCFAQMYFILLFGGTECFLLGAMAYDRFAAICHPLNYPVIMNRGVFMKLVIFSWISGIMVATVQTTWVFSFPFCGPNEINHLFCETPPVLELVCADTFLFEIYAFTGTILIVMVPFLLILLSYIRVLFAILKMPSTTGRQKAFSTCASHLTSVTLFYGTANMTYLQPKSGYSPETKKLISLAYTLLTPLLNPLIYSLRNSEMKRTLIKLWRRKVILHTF
The procedure, abridged: as §1
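Further: active if original authors judged signal statistically different from baseline.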

With `CC(C)CCC(=O)O`, the “odorant receptor agonist call” value in test [1], in test [2], in test [3], in test [4], in test [5] and in test [6] was “inactive” throughout. In addition, the “odorant receptor agonist call” value in test [7] and in test [8] was “inactive” throughout.

`CCCCCCCCOC(C)=O`: the “odorant receptor agonist call” value in test [1], in test [2], in test [3], in test [4], in test [6] and in test [7] was “inactive” each time. Further, the “odorant receptor agonist call” value in test [8] was “inactive”. The “odorant receptor agonist call” value in test [5] was “active”.

`CCCCCC(=O)O`: the “odorant receptor agonist call” value in test [1], in test [2], in test [3], in test [4], in test [5] and in test [6] was “inactive” each time. The “odorant receptor agonist call” value in test [7] and in test [8] was “inactive” each time.

Take `CCCCCCCCCC=O`: the “odorant receptor agonist call” value in test [1], in test [2], in test [3], in test [4], in test [5] and in test [6] was “inactive” each time. Moreover, the “odorant receptor agonist call” value in test [7] and in test [8] was “inactive” throughout.

Take `CCC1(O)C2(C)CCC(C2)C1(C)C` (stereo not drawn): the “odorant receptor agonist call” value in test [1], in test [2], in test [3], in test [4], in test [5] and in test [6] was “inactive” in each case. Moreover, the “odorant receptor agonist call” value in test [7] and in test [8] was “inactive” in each case.

As for `CCCC(=O)O`, in test [1], the “odorant receptor agonist call” value is “active”. Also, the “odorant receptor agonist call” value in test [2], in test [3], in test [4], in test [5], in test [6] and in test [7] was “inactive” in each case. Further, the “odorant receptor agonist call” value in test [8] is “inactive”.

Regarding `O=CCc1ccccc1`, the “odorant receptor agonist call” value in test [1], in test [2], in test [3], in test [4], in test [6] and in test [7] was “inactive” in each case. Moreover, in test [8], the “odorant receptor agonist call” value was “inactive”. In addition, in test [5], the “odorant receptor agonist call” value was “active”.

Take `CC1=NC(C)SC1C` (stereo not drawn): the “odorant receptor agonist call” value in test [1], in test [2], in test [3], in test [4], in test [6] and in test [7] was “inactive” throughout. Further, the “odorant receptor agonist call” value in test [8] is “inactive”.

`CC(C)(O)CCCC1=CCC(C=O)CC1` (stereo not drawn): the “odorant receptor agonist call” value in test [5] is “inactive”.

With `COC(=O)c1ccccc1`, the “odorant receptor agonist call” value in test [1], in test [2], in test [3], in test [4], in test [6] and in test [7] was “inactive” each time. Also, the “odorant receptor agonist call” value in test [8] was “inactive”.

Consider `CC=Cc1ccc(O)c(OC)c1`, for which the “odorant receptor agonist call” value in test [1], in test [2], in test [3], in test [4], in test [6] and in test [7] was “inactive” each time. Besides, in test [8], the “odorant receptor agonist call” value is “inactive”. Further, in test [5], the “odorant receptor agonist call” value was “active”.

As to `c1ccc(Oc2ccccc2)cc1`, the “odorant receptor agonist call” value in test [1], in test [2], in test [3], in test [4], in test [5] and in test [6] was “inactive” throughout. For the same compound, the “odorant receptor agonist call” value in test [7] and in test [8] was “inactive” throughout.

With `c1cnccn1`, the “odorant receptor agonist call” value in test [1], in test [2], in test [3], in test [4], in test [5] and in test [6] was “inactive” in each case. The “odorant receptor agonist call” value in test [7] and in test [8] was “inactive” in each case.

For the compound `COc1cc(C=O)ccc1O`, the “odorant receptor agonist call” value in test [1], in test [2], in test [3], in test [4], in test [5] and in test [6] was “inactive” throughout. The “odorant receptor agonist call” value in test [7] and in test [8] was “inactive” in each case.

In the case of `C=CC(C)(O)CCC=C(C)C` (stereo not drawn), the “odorant receptor agonist call” value in test [1], in test [2], in test [3], in test [4], in test [5] and in test [6] was “inactive” each time. Besides, the “odorant receptor agonist call” value in test [7] and in test [8] was “inactive” in each case.

Take `C=CCSCC=C`: the “odorant receptor agonist call” value in test [1], in test [2], in test [3], in test [4], in test [5] and in test [6] was “inactive” throughout. The “odorant receptor agonist call” value in test [7] and in test [8] was “inactive” each time.

Take `CC(=O)C(C)=O`: the “odorant receptor agonist call” value in test [1], in test [2], in test [3], in test [4], in test [5] and in test [6] was “inactive” throughout. Further, the “odorant receptor agonist call” value in test [7] and in test [8] was “inactive” throughout.

With `CCCCCCCC=CC=O`, the “odorant receptor agonist call” value in test [1], in test [2], in test [3], in test [5], in test [6] and in test [7] was “inactive” in each case. For the same compound, the “odorant receptor agonist call” value in test [8] was “inactive”. Also, in test [4], the “odorant receptor agonist call” value is “active”.

Turning to `CC1=CCC(C(C)(C)O)CC1` (stereo not drawn), the “odorant receptor agonist call” value in test [1], in test [2], in test [3], in test [4], in test [5] and in test [6] was “inactive” throughout. Moreover, the “odorant receptor agonist call” value in test [7] and in test [8] was “inactive” each time.

As for `CCCCCC(C)=O`, the “odorant receptor agonist call” value in test [1], in test [2], in test [3], in test [4], in test [6] and in test [7] was “inactive” each time. Besides, in test [8], the “odorant receptor agonist call” value is “inactive”.

Consider `COC(=O)c1ccccc1O`, for which the “odorant receptor agonist call” value in test [1], in test [2], in test [3], in test [4], in test [5] and in test [6] was “inactive” in each case. In addition, the “odorant receptor agonist call” value in test [7] and in test [8] was “inactive” each time.

Turning to `CC(C)C=O`, the “odorant receptor agonist call” value in test [1], in test [2], in test [3], in test [4], in test [5] and in test [6] was “inactive” in each case. Further, the “odorant receptor agonist call” value in test [7] and in test [8] was “inactive” throughout.

For `CC(=O)OC1CC2CCC1(C)C2(C)C` (stereo not drawn), the “odorant receptor agonist call” value in test [1], in test [2], in test [3], in test [4], in test [5] and in test [6] was “inactive” each time. Also, the “odorant receptor agonist call” value in test [7] and in test [8] was “inactive” each time.

With `CC(=O)OCC=C(C)CCC=C(C)C`, the “odorant receptor agonist call” value in test [1], in test [2], in test [3], in test [4], in test [6] and in test [7] was “inactive” each time. In addition, in test [8], the “odorant receptor agonist call” value was “inactive”. Moreover, the “odorant receptor agonist call” value in test [5] is “active”.

Regarding `C=C(C)C1CCC2=CC(=O)CC(C)C2(C)C1` (stereo not drawn), in test [5], the “odorant receptor agonist call” value was “inactive”.

Regarding `CC(=O)c1ccccc1`, the “odorant receptor agonist call” value in test [1], in test [2], in test [3], in test [4], in test [6] and in test [7] was “inactive” in each case. For the same compound, in test [8], the “odorant receptor agonist call” value was “inactive”.

Regarding `CCCCCCCOC(C)=O`, the “odorant receptor agonist call” value in test [1], in test [2], in test [3], in test [4], in test [5] and in test [6] was “inactive” throughout. Moreover, the “odorant receptor agonist call” value in test [7] and in test [8] was “inactive” throughout.
